From US20220087946A1, “COMPOSITIONS, METHODS, SYSTEMS AND/OR KITS FOR PREVENTING AND/OR TREATING NEOPLASMS” (Research Cancer Institute of America, priority 2017, published 2022)
At least one compound was matched to its structure with a doubt left.

Key:
[1] = system: brain metastases from advanced lung cancer and breast cancer; details: temozolomide and concurrent radiotherapy; cited from earlier work
[2] = system: glioblastoma multiforme (GBM); details: cited from earlier work
U-87 MG cells = assay: Xenograft study using a chemo-resistant cancer cell line; assay type: in vivo, NCr nude mice; details: daily s.c. administration for 10 days

In the case of `Cn1nnc2c(C(N)=O)ncn2c1=O` [Temozolomide], the “highest objective response rate” value [1] is given as 0.959, the Median survival ([2]; TMZ+RT, RT alone 12.1 months) is given as 14.6 months and the “hazard ratio (HR), overall survival” value ([2]; concomitant and maintenance TMZ+radiation therapy (RT) vs RT alone, 95 percent CI 0.52-0.75, log-rank p<0.0001) is given as 0.63. For the same compound, the “improvement of survival by addition of Temodar” value ([2]; glioblastoma) was 2.5 months, the tumor weight (U-87 MG cells; tumors weighed at 20 days after inoculation) was “decrease” and the U87MG xenograft volume (U-87 MG cells; vs PBS control) was “decrease”.
